In article PMC4203807:

Key:
GST-AP180 FL-T3 (mouse) = target: T1, GST-AP180 FL-T3 (mouse) (UniProt Q61548); experiment: condition: 2 µg of purified clathrin; ∼10 µg of bead-bound protein; pull-down; GST-AP180 sequences (∼10 µg) on GSH-Sepharose beads as bait; 2 µg purified bovine brain clathrin as the only other protein; same lysis buffer (1% Triton X-100); 4°C, 4 h; Western blot for CHC; both purified
T1 sequence: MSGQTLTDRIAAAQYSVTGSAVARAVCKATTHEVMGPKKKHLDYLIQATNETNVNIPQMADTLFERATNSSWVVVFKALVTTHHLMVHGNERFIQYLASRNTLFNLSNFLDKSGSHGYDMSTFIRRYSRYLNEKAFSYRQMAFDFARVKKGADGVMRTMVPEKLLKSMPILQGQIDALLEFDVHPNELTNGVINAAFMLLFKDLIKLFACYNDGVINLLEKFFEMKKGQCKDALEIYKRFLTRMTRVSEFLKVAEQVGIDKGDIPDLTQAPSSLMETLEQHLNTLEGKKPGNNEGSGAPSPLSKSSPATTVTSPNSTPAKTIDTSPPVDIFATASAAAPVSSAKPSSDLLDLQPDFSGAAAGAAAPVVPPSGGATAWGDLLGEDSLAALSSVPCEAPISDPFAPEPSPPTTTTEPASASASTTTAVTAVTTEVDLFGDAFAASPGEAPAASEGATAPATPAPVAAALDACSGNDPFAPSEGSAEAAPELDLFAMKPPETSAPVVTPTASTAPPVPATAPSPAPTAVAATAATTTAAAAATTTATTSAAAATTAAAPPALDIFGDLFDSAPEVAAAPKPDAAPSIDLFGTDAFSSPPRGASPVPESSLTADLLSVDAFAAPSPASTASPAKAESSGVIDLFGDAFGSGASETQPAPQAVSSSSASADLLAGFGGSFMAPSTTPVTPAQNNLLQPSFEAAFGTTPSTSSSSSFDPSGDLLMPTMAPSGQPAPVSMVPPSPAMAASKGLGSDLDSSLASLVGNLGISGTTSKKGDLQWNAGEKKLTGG

[1] = target: T2, GST-AP180 N½ (1–530) (mouse) (UniProt Q61548); experiment: as above
T2 sequence: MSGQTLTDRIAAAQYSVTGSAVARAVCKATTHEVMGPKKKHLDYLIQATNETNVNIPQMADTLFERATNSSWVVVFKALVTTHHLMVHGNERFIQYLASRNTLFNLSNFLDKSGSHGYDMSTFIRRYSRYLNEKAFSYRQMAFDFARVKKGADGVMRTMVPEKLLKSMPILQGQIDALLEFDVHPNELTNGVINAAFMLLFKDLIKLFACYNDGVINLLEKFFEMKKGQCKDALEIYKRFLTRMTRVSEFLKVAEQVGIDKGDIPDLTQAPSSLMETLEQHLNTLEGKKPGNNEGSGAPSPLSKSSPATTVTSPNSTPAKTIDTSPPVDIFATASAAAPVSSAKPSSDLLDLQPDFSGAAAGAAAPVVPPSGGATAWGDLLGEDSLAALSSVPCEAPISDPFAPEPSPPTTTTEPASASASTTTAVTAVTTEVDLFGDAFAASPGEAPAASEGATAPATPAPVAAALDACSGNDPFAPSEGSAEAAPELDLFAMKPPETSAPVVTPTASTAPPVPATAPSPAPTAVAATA

GST-AP180 FL-T2 (mouse) = target: T3, GST-AP180 FL-T2 (mouse) (UniProt Q61548); experiment: pull-down; GST-AP180 sequences (∼10 µg) on GSH-Sepharose beads as bait; 2 µg purified bovine brain clathrin as the only other protein; same lysis buffer (1% Triton X-100); 4°C, 4 h; Western blot for CHC; both purified
T3 sequence: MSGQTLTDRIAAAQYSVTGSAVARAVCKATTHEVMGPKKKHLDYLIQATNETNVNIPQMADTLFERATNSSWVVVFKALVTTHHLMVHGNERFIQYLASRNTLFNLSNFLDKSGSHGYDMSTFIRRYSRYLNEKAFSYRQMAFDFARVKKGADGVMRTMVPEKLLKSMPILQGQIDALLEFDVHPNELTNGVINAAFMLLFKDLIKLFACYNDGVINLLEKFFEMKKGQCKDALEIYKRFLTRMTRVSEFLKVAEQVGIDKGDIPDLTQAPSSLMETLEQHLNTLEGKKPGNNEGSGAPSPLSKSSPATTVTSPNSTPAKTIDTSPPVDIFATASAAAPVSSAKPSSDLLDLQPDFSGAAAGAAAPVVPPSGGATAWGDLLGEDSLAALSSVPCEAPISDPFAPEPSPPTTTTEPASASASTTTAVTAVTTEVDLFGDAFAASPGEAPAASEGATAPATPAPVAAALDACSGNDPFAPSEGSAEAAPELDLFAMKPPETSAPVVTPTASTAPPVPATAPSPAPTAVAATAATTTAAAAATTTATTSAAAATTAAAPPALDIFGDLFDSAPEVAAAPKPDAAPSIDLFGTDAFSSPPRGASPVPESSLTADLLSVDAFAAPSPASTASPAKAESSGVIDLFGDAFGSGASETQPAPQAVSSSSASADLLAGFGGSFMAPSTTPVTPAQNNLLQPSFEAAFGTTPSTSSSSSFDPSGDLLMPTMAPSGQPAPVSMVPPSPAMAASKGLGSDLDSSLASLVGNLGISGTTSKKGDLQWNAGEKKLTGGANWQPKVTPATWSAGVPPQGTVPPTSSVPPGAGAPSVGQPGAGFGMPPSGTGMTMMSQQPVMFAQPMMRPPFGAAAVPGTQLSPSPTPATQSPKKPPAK

[2] = target: T4, GST-AP180 C1 (isolated ∼16 kDa C-terminal sub-domain, 730–896) (mouse) (UniProt Q61548); experiment: as above
T4 sequence: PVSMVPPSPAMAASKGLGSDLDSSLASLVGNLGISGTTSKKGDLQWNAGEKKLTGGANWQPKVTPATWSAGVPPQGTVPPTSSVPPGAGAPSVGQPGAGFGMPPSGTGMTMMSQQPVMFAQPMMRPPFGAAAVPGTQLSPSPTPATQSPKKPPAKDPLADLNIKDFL

[3] = target: T5, GST-AP180 M1 (isolated CLAP sub-domain, 287–730) (mouse) (UniProt Q61548); experiment: as above
T5 sequence: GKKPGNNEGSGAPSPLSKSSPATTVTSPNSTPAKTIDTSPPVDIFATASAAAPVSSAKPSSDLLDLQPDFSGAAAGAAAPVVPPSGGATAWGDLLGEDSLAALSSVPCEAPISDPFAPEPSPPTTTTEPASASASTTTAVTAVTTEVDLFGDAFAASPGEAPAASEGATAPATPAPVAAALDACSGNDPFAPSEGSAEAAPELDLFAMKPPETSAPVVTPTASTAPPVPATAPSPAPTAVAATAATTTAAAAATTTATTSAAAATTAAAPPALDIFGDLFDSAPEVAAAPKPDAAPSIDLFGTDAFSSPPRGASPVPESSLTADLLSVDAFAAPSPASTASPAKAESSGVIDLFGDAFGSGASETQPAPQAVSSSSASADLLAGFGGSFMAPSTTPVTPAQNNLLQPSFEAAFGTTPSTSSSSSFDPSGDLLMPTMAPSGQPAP

[4] = target: T6, GST-AP180 FL (codon optimised, de-tagged: no 6His) (mouse) (UniProt Q61548); experiment: as above
T6 sequence: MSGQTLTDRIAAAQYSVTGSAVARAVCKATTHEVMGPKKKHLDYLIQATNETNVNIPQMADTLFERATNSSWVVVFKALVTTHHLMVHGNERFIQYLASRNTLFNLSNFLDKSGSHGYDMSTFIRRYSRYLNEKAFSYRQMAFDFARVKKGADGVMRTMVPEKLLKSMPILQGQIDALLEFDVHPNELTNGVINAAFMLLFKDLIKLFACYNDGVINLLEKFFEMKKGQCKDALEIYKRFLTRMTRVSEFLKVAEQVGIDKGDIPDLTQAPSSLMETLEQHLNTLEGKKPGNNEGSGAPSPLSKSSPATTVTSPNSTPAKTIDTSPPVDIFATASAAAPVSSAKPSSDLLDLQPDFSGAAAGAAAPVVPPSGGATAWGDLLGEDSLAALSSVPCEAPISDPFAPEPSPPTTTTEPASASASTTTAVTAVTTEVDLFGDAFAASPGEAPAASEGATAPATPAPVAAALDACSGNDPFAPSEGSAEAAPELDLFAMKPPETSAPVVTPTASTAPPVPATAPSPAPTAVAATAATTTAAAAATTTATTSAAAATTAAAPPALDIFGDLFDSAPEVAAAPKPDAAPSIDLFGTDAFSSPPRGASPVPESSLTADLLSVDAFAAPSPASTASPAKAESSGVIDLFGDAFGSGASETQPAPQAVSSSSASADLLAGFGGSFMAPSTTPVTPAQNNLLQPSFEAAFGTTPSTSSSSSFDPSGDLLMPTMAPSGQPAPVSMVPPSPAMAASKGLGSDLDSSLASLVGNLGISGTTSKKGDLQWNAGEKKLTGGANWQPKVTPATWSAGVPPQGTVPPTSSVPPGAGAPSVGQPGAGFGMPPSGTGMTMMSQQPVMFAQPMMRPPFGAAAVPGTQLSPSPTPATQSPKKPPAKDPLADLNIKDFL

[5] = target: T7, GST-AP180 C½ (493–896) (mouse) (UniProt Q61548); experiment: as above
T7 sequence: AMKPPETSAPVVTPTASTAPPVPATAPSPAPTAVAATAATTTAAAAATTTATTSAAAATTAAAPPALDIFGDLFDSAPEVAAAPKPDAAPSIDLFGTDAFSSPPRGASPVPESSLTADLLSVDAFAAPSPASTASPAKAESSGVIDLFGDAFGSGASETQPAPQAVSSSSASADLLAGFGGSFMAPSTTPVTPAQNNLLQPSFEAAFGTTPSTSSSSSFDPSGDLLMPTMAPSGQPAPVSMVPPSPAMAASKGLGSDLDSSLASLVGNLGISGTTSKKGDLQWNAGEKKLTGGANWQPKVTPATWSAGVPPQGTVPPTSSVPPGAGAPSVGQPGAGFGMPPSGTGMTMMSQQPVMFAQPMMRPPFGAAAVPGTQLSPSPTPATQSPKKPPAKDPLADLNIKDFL

[6] = target: T8, GST-AP180 FL-6His (mouse) (UniProt Q61548); experiment: as above
T8 sequence: T6 sequence

binding (GST-AP180 FL-T3 (mouse)): no binding
binding [1]: no binding
binding (GST-AP180 FL-T2 (mouse)): binds
binding [2]: binds weakly
binding [3]: binds weakly
binding [4]: binds
binding [5]: binds
binding [6]: binds
Substance: purified clathrin from bovine brain (complex)

No constants are given. Whether binding was seen depends on the method and setting. For some assays here: Binding calls can cover weak binding; strength is not graded here. Tags and fused reporters may be left off the sequences shown.
